{
  "source": "patent US20060252723A1",
  "about": "“Combined therapy utilizing reduction of DNA methyltransferase expression and/or activity and interferon” (Methylgene, Inc. The Cleveland Clinic Foundation, priority 2005, published 2006)",
  "tested_on": "ACHN cells",
  "experiment": "TUNEL flow cytometric analysis of apoptosis",
  "format": "cell-based, human",
  "protocol": "After the indicated time of DNMT1 inhibition cells were plated at 5000 cells/cm^2 for TUNEL assay with IFNs added 16 hr after plating. Four to 5 days after IFN administration cells were harvested and processed according to the manufacturer's instructions for TUNEL flow cytometric analysis (BD Pharmingen, San Diego, Calif.).",
  "note": "Some entries share one result that the patent states for a list of compounds.",
  "data": [
    {"substance": "5′-UUCATGTCAGCCAAGGCCAC-3 (all phosphorothioate, sugars by position and methylation of C not given here; 2'-O-methyl gapmer) [MG98, second-generation 4×4 2′methyl phosphorothioate oligonucleotide antisense against the 3′ UTR of DNMT1 mRNA]", "values": [
      {"measurement": "cells apoptotic on TUNEL staining (up to)", "setting": "5-AZA-dC over 24 days or oligonucleotide transfection over 6 to 8 days, then 50 U/ml IFN α or IFN β, 4-5 days after IFN", "result": "50-80%"},
      {"measurement": "TUNEL positive", "setting": "agent alone, no IFN, 5-AZA-dC 4 days", "result": "< 5", "unit": "%"}
    ]}
  ]
}
